Data taken from patent publication US20230090247A1, “MOLECULES TARGETING RAS PROTEIN” (AELIN THERAPEUTICS, priority 2020, published 2023).
These are yes or no findings as the source states them, for the method shown. Some entries that bind do so weakly or less than the wild type.

Tests used:
[1] = target: mCherry-tagged KRAS G12V (human) (UniProt P01116); assay: confocal fluorescence co-localisation in HeLa cells overexpressing mCherry-tagged KRAS G12V
[2] = target: mCherry-tagged KRAS G12V (human) (UniProt P01116); assay: confocal fluorescence co-localisation in HeLa cells overexpressing mCherry-tagged KRAS G12V (FIG. 7)

- binding [1]: binds
- binding [2]: binds
B1: 04-015-N032, FITC-labelled version of pept-in 04-015-N001 (peptide)
peptide: KVVVGAVGKGSKVVVGAVGK
modifications: FITC label; position not stated
